# Experimental data published in patent publication US4341798A, “Amide derivatives of p-isobutyl-phenyl-propionic acids and related pharmaceutical compositions” (Laboratori Prophin S.p.A., priority 1980, dated 1982).
# Experiment: in vivo
# Details: rat
compound,measurement,value
"COc1ccc2cc([C@H](C)C(=O)O)ccc2c1 [Naproxene, d-2(6'-methoxy-2'-naphtyl)-propionic acid]",TD50 at 672 h,180 µmol/kg
